# Melanoma cell counts after drug treatment

Every entry is a combination with dorsomorphin at 0.4 µM: c1cc(-c2cnn3cc(-c4ccc(OCCN5CCCCC5)cc4)cnc23)ccn1

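Human melanoma cells were exposed to a pair of drugs for 72 h in 1,536-well plates and read by automated microscopy after fixing and staining. Each value is the count of nuclei relative to DMSO-treated wells, in %, so that 100 equals the control. Concentrations were fixed for each drug; these are the lower of two levels, a fifth of the higher. No replicate spread is given; individual values may be noisy.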 Only some of the drugs and lines screened are listed, without regard to their results. A dash means that no value is listed here.

Second drug,IPC-298,LB2518-MEL,A375,501mel,LOX IMVI,A2058,G-361,COLO 792,IST-MEL1,MEL-HO,COLO 800,C32,COLO 829,A101D
C/C(O)=C(\C#N)C(=O)Nc1cc(Br)ccc1Br at 2 µM,98.3,127,95.4,85.6,99.7,108,97.7,96.5,98.0,91.4,70.3,85.4,93.8,110
Cc1nc(Nc2ncc(C(=O)Nc3c(C)cccc3Cl)s2)cc(N2CCN(CCO)CC2)n1 at 0.004 µM,90.3,94.0,78.5,88.4,66.5,91.8,81.3,64.9,81.5,77.5,107,79.4,85.7,88.3
Nc1ccn([C@@H]2O[C@H](CO)[C@@H](O)C2(F)F)c(=O)n1 at 0.0004 µM,93.6,111,-,95.3,109,96.5,97.8,86.5,76.1,82.2,70.7,89.0,106,95.5
Cn1nnc2c(C(N)=O)ncn2c1=O at 2 µM,85.6,119,78.2,120,118,95.4,94.1,94.5,103,94.3,101,83.1,91.3,109
Cc1ccc(NC(=O)c2cccc(N(C)C)c2)cc1NC(=O)c1ccc(O)cc1 at 2 µM,82.2,95.9,71.5,67.5,110,112,92.6,98.4,95.5,87.1,110,89.1,90.3,96.2
CN(C)S(=O)(=O)c1ccc2c(c1)/C(=C/c1cc3c([nH]1)CCCC3)C(=O)N2 at 0.4 µM,93.9,99.3,105,109,108,100,69.1,75.3,101,113,97.2,90.9,95.9,80.6
Cc1cn(-c2cc(NC(=O)c3ccc(C)c(Nc4nccc(-c5cccnc5)n4)c3)cc(C(F)(F)F)c2)cn1 at 0.2 µM,98.6,109,-,89.1,122,108,86.8,103,104,99.6,73.4,101,129,106
CN1CCN(c2ccc3nc(-c4c(N)c5c(F)cccc5[nH]c4=O)[nH]c3c2)CC1 at 0.1 µM,96.3,83.0,-,90.4,132,91.4,75.0,92.6,97.2,96.0,59.8,91.1,99.8,91.7
C=CCn1c(=O)c2cnc(Nc3ccc(N4CCN(C)CC4)cc3)nc2n1-c1cccc(C(C)(C)O)n1 at 0.02 µM,94.8,79.9,72.4,77.1,89.6,94.8,91.3,83.6,99.7,96.0,93.4,92.7,110,82.1
CC(C)C[C@H](NC(=O)[C@H](Cc1ccccc1)NC(=O)c1cnccn1)B(O)O at 0.001 µM,77.8,33.7,-,44.9,110,84.0,7.7,92.7,81.7,102,72.0,105,66.4,35.5
Cn1c(=O)n(-c2ccc(C(C)(C)C#N)cc2)c2c3cc(-c4cnc5ccccc5c4)ccc3ncc21 at 0.004 µM,97.0,117,-,64.2,122,79.5,97.6,78.4,92.0,97.2,114,75.8,93.5,87.5
N.N.[Cl][Pt][Cl] at 1.6 µM,96.1,107,-,75.6,48.9,85.7,95.3,88.2,90.0,104,68.1,81.2,110,88.1
CO[C@@H]1[C@H](N(C)C(=O)c2ccccc2)C[C@H]2O[C@]1(C)n1c3ccccc3c3c4c(c5c6ccccc6n2c5c31)C(=O)NC4 at 0.08 µM,106,-,101,-,75.7,102,88.0,88.2,86.7,91.5,75.1,97.6,106,90.7
C[C@@H](N)c1ccc(C(=O)Nc2ccnc3[nH]ccc23)cc1 at 0.4 µM,98.1,115,-,87.3,130,102,116,89.7,91.5,93.9,104,93.6,85.5,92.2
Nc1cccc2c1CN(C1CCC(=O)NC1=O)C2=O (stereo not given) at 1 µM,102,96.7,95.8,92.1,116,98.7,90.7,102,94.4,87.8,111,91.7,101,106
CN(NC(=O)CC(=O)NN(C)C(=S)c1ccccc1)C(=S)c1ccccc1 at 0.006 µM,101,-,21.1,-,70.1,59.4,76.1,81.7,71.0,86.3,54.8,59.7,61.8,77.3
COc1cc(Nc2ncc(F)c(Nc3ccc4c(n3)NC(=O)C(C)(C)O4)n2)cc(OC)c1OC at 0.4 µM,71.0,84.4,78.7,92.9,72.6,101,80.4,54.8,91.0,103,73.8,104,77.9,90.0
C[As](C)SC[C@H](NC(=O)CC[C@H](N)C(=O)O)C(=O)NCC(=O)O at 0.4 µM,95.9,98.9,91.3,84.8,94.1,94.4,91.9,92.2,98.3,94.4,133,89.8,92.7,95.6
CC(=O)c1c(C)c2cnc(Nc3ccc(N4CCNCC4)cn3)nc2n(C2CCCC2)c1=O at 0.04 µM,74.6,84.4,-,62.1,110,114,74.3,60.4,84.1,88.7,121,67.0,95.2,71.8
Cn1cnc2c(F)c(Nc3ccc(Br)cc3Cl)c(C(=O)NOCCO)cc21 at 0.015 µM,78.1,66.4,-,-,122,120,88.4,84.8,91.9,95.7,126,92.0,140,86.6
O=C(CCCCCCC(=O)Nc1ccccc1)NO at 0.08 µM,105,102,96.8,72.7,123,96.0,83.3,92.3,101,90.4,75.7,102,98.8,98.8
NC(=O)Nc1cc(-c2cccc(F)c2)sc1C(=O)N[C@H]1CCCNC1 at 0.02 µM,106,117,43.1,90.1,114,129,83.3,87.6,107,105,98.9,103,89.6,92.8
COc1ccc(C2=N[C@@H](c3ccc(Cl)cc3)[C@@H](c3ccc(Cl)cc3)N2C(=O)N2CCNC(=O)C2)c(OC(C)C)c1 at 0.1 µM,96.2,101,-,69.9,97.3,98.4,85.3,92.1,98.9,97.2,113,99.5,94.7,89.2
CCCCCCCCc1ccc(CCC(N)(CO)CO)cc1 at 2 µM,104,87.6,-,70.9,79.8,94.4,95.7,93.2,98.9,93.4,92.6,71.0,81.6,97.6
NCC(=O)Nc1ccc(-n2nc(C(F)(F)F)cc2-c2ccc3c(ccc4ccccc43)c2)cc1 at 1 µM,81.9,120,19.8,41.0,88.2,106,99.9,80.8,95.0,87.7,74.6,78.2,89.6,104
C[C@]1(c2nc3c(C(N)=O)cccc3[nH]2)CCCN1 at 1.4 µM,94.1,94.6,75.4,90.3,100,89.8,89.2,99.1,96.9,96.8,62.7,82.6,92.6,91.6
CCc1ccc(CCOc2ccc(CC3SC(=O)NC3=O)cc2)nc1 (stereo not given) at 2 µM,95.0,112,82.9,78.2,72.0,105,96.9,88.3,107,78.2,122,87.4,99.3,115
Cn1c(Nc2ccc(C(F)(F)F)cc2)nc2cc(Oc3ccnc(-c4ncc(C(F)(F)F)[nH]4)c3)ccc21 at 0.08 µM,62.1,64.6,63.9,47.5,80.3,92.5,87.7,57.8,93.7,92.6,47.3,86.4,83.7,71.8
Cc1cc(SCc2sc(-c3ccc(C(F)(F)F)c(F)c3)nc2C)ccc1OCC(=O)O at 2 µM,101,105,91.0,101,182,105,84.5,84.5,98.6,109,90.0,86.9,104,100
O=C(Nc1ccccc1)c1cc([N+](=O)[O-])ccc1Cl at 2 µM,103,101,99.5,63.7,76.2,111,94.8,96.1,102,97.5,116,94.3,62.7,88.3
COc1cc([C@@H]2c3cc4c(cc3[C@@H](O[C@@H]3O[C@@H]5CO[C@@H](C)O[C@H]5[C@H](O)[C@H]3O)[C@H]3COC(=O)[C@H]23)OCO4)cc(OC)c1O at 0.02 µM,88.5,100,-,72.6,113,97.8,92.8,97.7,97.0,96.4,113,87.3,103,105
C[C@]1(O)C[C@@H](c2nc(-c3ccc4ccc(-c5ccccc5)nc4c3)c3c(N)nccn32)C1 at 0.4 µM,94.1,69.4,-,75.1,113,109,88.5,96.1,104,73.0,64.8,94.7,91.5,90.6

For reference, 3 entries once more:

| Second drug | IPC-298 | LB2518-MEL | A375 | 501mel | LOX IMVI | A2058 | G-361 | COLO 792 | IST-MEL1 | MEL-HO | COLO 800 | C32 | COLO 829 | A101D |
|---|---|---|---|---|---|---|---|---|---|---|---|---|---|---|
| NCC(=O)Nc1ccc(-n2nc(C(F)(F)F)cc2-c2ccc3c(ccc4ccccc43)c2)cc1 at 1 µM | 81.9 | 120 | 19.8 | 41.0 | 88.2 | 106 | 99.9 | 80.8 | 95.0 | 87.7 | 74.6 | 78.2 | 89.6 | 104 |
| Nc1ccn([C@@H]2O[C@H](CO)[C@@H](O)C2(F)F)c(=O)n1 at 0.0004 µM | 93.6 | 111 | - | 95.3 | 109 | 96.5 | 97.8 | 86.5 | 76.1 | 82.2 | 70.7 | 89.0 | 106 | 95.5 |
| NC(=O)Nc1cc(-c2cccc(F)c2)sc1C(=O)N[C@H]1CCCNC1 at 0.02 µM | 106 | 117 | 43.1 | 90.1 | 114 | 129 | 83.3 | 87.6 | 107 | 105 | 98.9 | 103 | 89.6 | 92.8 |

Data from the primary screen of doi:10.1371/journal.pone.0140310, rounded.